Experimental data published in paper PMC12014981.
Results are given in words; binding and its absence hold for the method and conditions named. Binding seen in cells or lysates may run through a third protein. Where a sequence is shown, tags or fusion partners need not be part of it.

Biological target: T1, HA-RAB23 (human) (UniProt Q9ULC3)
T1 sequence: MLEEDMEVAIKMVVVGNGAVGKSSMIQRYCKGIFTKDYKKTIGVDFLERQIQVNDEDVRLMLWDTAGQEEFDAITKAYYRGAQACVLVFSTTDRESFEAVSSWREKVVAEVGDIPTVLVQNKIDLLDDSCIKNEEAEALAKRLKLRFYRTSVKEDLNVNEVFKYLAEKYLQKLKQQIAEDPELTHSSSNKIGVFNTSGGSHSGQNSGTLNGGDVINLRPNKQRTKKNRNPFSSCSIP
Test: co-IP; mouse anti-HA antibody and protein G Mag sepharose on lysates of MG-63 cells transfected with HA-RAB23 pcDNA3.1 (control: IgG on un-transfected cells); cells starved 1 h, osteogenic medium with BMP2 10 min; Pierce IP lysis buffer, 4 °C overnight; western blot

clathrin (human (endogenous in MG-63))
binding: no binding
